Key:
HCC4006 = experiment: 5 day Cell Titer Glo assay, parental cells; type: cell-based; conditions: Homo sapiens, HCC4006, 120 h, Table 3, CDK inhibitors, 5 day Cell Titer Glow; drugs listed twice; read-out: HCC4006 GIC50
Experimental: (§1) Proteomic profiling of resistant cells was performed by reverse phase protein array (RPPA) and Western blotting for markers of epithelial to mesenchymal transition (EMT). Cell Titer glow assay in a high-throughput 384 well plate system was utilized for drug screening. Long-term effect of SAC and CDK inhibitors was evaluated by […] clonogenic assay.

HCC4006 ER = experiment: 5 day Cell Titer Glo assay, erlotinib resistant cells; type: cell-based; conditions: Homo sapiens, HCC4006, 120 h, Table 3, CDK inhibitors, 5 day Cell Titer Glow; drugs listed twice; read-out: HCC4006 ER GIC50
Experimental: as §1

Q: What does the source list for CCc1cnn2c(NCc3ccc[n+]([O-])c3)cc(N3CCCC[C@H]3CCO)nc12 [Dinaciclib]?
A: IC50 (HCC4006): 10 nM; IC50 (HCC4006 ER): 10 nM

From patent US20210015819A1, “METHODS FOR TREATMENT OF CANCERS WITH EGFR ACTIVATING MUTATIONS” (Board of Regents, The University of Texas System, priority 2018, published 2021)
